Assay results taken from PubChem BioAssay AID504834 (National Center for Advancing Translational Sciences (NCATS), 2011).
In all, about 320,000 compounds went through this assay and about 22,000 (6.9%) were called active. The shares of active, inactive and inconclusive entries below differ from those in the screen. The call rests on the fitted dose curve; in most records, active means well fitted inhibition curve with a large enough effect; inconclusive means small, poorly fitted or top-dose-only effect, or another doubt; inactive means no such curve, though single readings can be large or run the other way. Where the call is inconclusive, the potency comes from a doubtful curve fit.

Assay: Primary qHTS for delayed death inhibitors of the malarial parasite plastid, 96 hour incubation
Settings: P. falciparum luciferase reporter growth; series mostly up to 28.7 µM
Procedure, shortened: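 P. falciparum expressing integrated firefly luciferase grown in erythrocytes (2% hematocrit, 0.05% parasitemia final) with compounds for 96 hours at 37 C, 5% CO2. Growth inhibition read as loss of luminescence after adding luciferase detection reagent.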
On the % scale 0 is the no-effect control and ±100 the full control effect; potency means the concentration at half of the fitted maximal effect.

Row | Structure (SMILES) | Potency | activity change, negative = inhibition
1 | COCCCNC(=O)c1ccccc1N(Cc1ccccc1)S(=O)(=O)c1ccccc1 | inconclusive: 6.57 µM [inhibitor, partial curve] | 
2 | Cc1nc(SCC(=O)N2CCc3ccccc3C2)c2c(C)c(C)sc2n1 | inactive | 
3 | CN(Cc1cccnc1)C(=O)CNC(=O)COc1ccccc1 | inactive | 
4 | CCn1c(NC(=S)Nc2ccccc2)nc2ccccc21 | active: 3.29 µM | 
5 | CCN1C(=C(C#N)C#N)C=Cc2ccccc21 | inconclusive: 9.28 µM [inhibitor, single point] | 
6 | OCCNCC(O)Cn1c2ccccc2c2ccccc21 (stereo not drawn) | inconclusive: 5.22 µM [inhibitor, partial curve, poor fit] | 
7 | O=C(NNC(=O)c1cc(-c2ccc(Cl)cc2Cl)nc2ccccc12)Nc1ccccc1 | inconclusive: 11.7 µM [inhibitor, single point] | 
8 | CC(=O)Nc1ccc(C(=O)N/N=C/C2CC3C=CC2C3)cc1 (stereo not drawn) | inconclusive: 13.1 µM [inhibitor, single point] | 
9 | CCC(C)N1CC(=O)N2C(c3ccc(OC)cc3OC)c3[nH]c4ccccc4c3C[C@H]2C1=O (stereo partly drawn) | inconclusive: 11.7 µM [inhibitor, partial curve] | 
10 | CC1=NN(Cc2c(C)nn(Cc3ccccc3)c2C)C(C)(C)C1 | inconclusive: 0.037 µM [inhibitor, full curve, poor fit] | 
11 | COc1ccc(Cl)cc1C1=CC(=O)C[C@H](c2ccc(F)cc2)C1 | inconclusive: 7.38 µM [inhibitor, single point] | 
12 | COc1ccc(-c2cc(C(=O)NNC(=S)NC(=O)c3c(-c4ccccc4)noc3C)[nH]n2)cc1 | inconclusive: 13.1 µM [inhibitor, partial curve, poor fit] | 
13 | CC12CC3CC(C)(C1)CC(C(=O)N1CCN(C(=O)C4CCCO4)CC1)(C3)C2 (stereo not drawn) | inconclusive: 0.104 µM [inhibitor, partial curve, poor fit] | 
14 | O=C(c1ccc(Cl)c(S(=O)(=O)N2CCc3ccccc3C2)c1)N1CCN(c2ccccc2)CC1 | inconclusive: 10.4 µM [inhibitor, partial curve] | 
15 | CC1CN(C(=O)COc2ccc3c(-c4ccccc4)cc(=O)oc3c2)CC(C)O1 (stereo not drawn) | inconclusive: 0.0037 µM [inhibitor, full curve, poor fit] | 
16 | COc1ccc(/C=N/NC(=O)CSc2nnc(CCCc3ccc(OC)c(C)c3)o2)cc1 |  | inactive: 1.23% [at 5.75 µM]
17 | CCN(CC)CCOC(=O)/C=C/c1ccccc1OC | inactive | 
18 | O=C(Nc1nc2n(n1)C(c1ccccc1)CC(c1ccc(Cl)cc1)N2)c1ccco1 (stereo not drawn) | inconclusive: 18.5 µM [inhibitor, single point] | 

Some of these compounds in order of SMILES length, high to low:
Row | Structure (SMILES) | Potency | activity change, negative = inhibition
9 | CCC(C)N1CC(=O)N2C(c3ccc(OC)cc3OC)c3[nH]c4ccccc4c3C[C@H]2C1=O (stereo partly drawn) | inconclusive: 11.7 µM [inhibitor, partial curve] | 
7 | O=C(NNC(=O)c1cc(-c2ccc(Cl)cc2Cl)nc2ccccc12)Nc1ccccc1 | inconclusive: 11.7 µM [inhibitor, single point] | 
17 | CCN(CC)CCOC(=O)/C=C/c1ccccc1OC | inactive | 
